No constants are given. Whether binding was seen depends on the method and setting. In cells and extracts the contact can be indirect. Binding can be weak; no strength is given.
Target: PER^I530A protein, endogenously tagged with the V5 epitope (Drosophila melanogaster)
Assay: co-IP

binding: binds
B1: TIMELESS (TIM) (protein, UniProt P49021 1-1398)
chain: MDWLLATPQLYSAFSSLGCLEGDTYVVNPNALAILEEINYKLTYEDQTLRTFRRAIGFGQNVRSDLIPLLENAKDDAVLESVIRILVNLTVPVECLFSVDVMYRTDVGRHTIFELNKLLYTSKEAFTEARSTKSVVEYMKHILESDPKLSPHKCDQINNCLLLLRNILHIPETHAHCVMPMMQSMPHGISMQNTILWNLFIQSIDKLLLYLMTCPQRAFWGVTMVQLIALIYKDQHVSTLQKLLSLWFEASLSESSEDNESNTSPPKQGSGDSSPMLTSDPTSDSSDNGSNGRGMGGGMREGTAATLQEVSRKGQEYQNAMARVPADKPDGSEEASDMTGNDSEQPGSPEQSQPAGESMDDGDYEDQRHRQLNEHGEEDEDEDEVEEEEYLQLGPASEPLNLTQQPADKVNNTTNPTSSAPQGCLGNEPFKPPPPLPVRASTSAHAQMQKFNESSYASHVSAVKLGQKSPHAGQLQLTKGKCCPQKRECPSSQSELSDCGYGTQVENQESISTSSNDDDGPQGKPQHQKPPCNTKPRNKPRTIMSPMDKKELRRKKLVKRSKSSLINMKGLVQHTPTDDDISNLLKEFTVDFLLKGYSYLVEELHMQLLSNAKVPIDTSHFFWLVTYFLKFAAQLELDMEHIDTILTYDVLSYLTYEGVSLCEQLELNARQEGSDLKPYLRRMHLVVTAIREFLQAIDTYNKVTHLNEDDKAHLRQLQLQISEMSDLRCLFVLLLRRFNPSIHSKQYLQDLVVTNHILLLILDSSAKLGGCQTIRLSEHITQFATLEVMHYYGILLEDFNNNGEFVNDCIFTMMHHIGGDLGQIGVLFQPIILKTYSRIWEADYELCDDWSDLIEYVIHKFMNTPPKSPLTIPTTSLTEMTKEHNQEHTVCSWSQEEMDTLYWYYVQSKKNNDIVGKIVKLFSNNGNKLKTRISIIQQLLQQDIITLLEYDDLMKFEDAEYQRTLLTTPTSATTESGIEIKECAYGKPSDDVQILLDLIIKENKAQHLLWLQRILIECCFVKLTLRSGLKVPEGDHIMEPVAYHCICKQKSIPVVQWNNEQSTTMLYQPFVLLLHKLGIQLPADAGSIFARIPDYWTPETMYGLAKKLGPLDKLNLKFDASELEDATASSPSRYHHTGPRNSLSSVSSLDVDLGDTEELALIPEVDAAVEKAHAMASTPSPSEIFAVPKTKHCNSIIRYTPDPTPPVPNWLQLVMRSKCNHRTGPSGDPSDCIGSSSTTVDDEGFGKSISAATSQAASTSMSTVNPTTTLSLNMLNTFMGSHNENSSSSGCGGTVSSLSMVALMSTGAAGGGGNTSGLEMDVDASMKSSFERLEVNGSHFSRANNLDQEYSAMVASVYEKEKELNSDNVSLASDLTRMYVSDEDDRLERTEIRVPHYH
